Measurements published in PMC12266109.
No constants are given. Whether binding was seen depends on the method and setting. In cells and extracts the contact can be indirect. Binding can be weak; no strength is given. Tags and fused reporters may be left off the sequences shown.

Biological target: T1, FLAG-tagged TSC22D2 (UniProt O75157)
T1 sequence: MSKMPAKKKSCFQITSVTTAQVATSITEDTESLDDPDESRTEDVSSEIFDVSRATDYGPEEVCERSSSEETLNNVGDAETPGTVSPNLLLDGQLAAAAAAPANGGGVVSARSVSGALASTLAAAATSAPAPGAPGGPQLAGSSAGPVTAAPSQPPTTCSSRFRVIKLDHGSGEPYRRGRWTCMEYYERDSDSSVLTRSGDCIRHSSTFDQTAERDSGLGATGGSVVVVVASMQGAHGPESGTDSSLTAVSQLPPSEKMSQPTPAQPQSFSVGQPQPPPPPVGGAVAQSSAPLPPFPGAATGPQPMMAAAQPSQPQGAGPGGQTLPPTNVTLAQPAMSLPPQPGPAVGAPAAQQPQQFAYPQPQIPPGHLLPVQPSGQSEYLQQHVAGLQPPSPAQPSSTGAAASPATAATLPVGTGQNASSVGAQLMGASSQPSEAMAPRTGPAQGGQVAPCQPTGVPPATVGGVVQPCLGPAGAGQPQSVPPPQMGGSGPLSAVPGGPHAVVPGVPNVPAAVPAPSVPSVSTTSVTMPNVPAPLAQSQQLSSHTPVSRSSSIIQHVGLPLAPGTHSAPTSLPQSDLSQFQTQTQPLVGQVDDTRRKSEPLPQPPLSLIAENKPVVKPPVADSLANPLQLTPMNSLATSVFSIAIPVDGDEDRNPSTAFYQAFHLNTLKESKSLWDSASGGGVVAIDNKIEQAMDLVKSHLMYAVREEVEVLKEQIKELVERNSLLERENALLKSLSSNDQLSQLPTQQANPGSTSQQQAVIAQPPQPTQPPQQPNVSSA
Test: co-IP; lysates of transfected HEK293 cells; FLAG-tagged TSC22D2 immunoprecipitated (FLAG M2 magnetic beads), TSC22D3-V5 detected by immunoblot

- binding: binds
Substance: TSC22D3-V5
